These are yes or no findings as the source states them, for the method shown. Binding seen in cells or lysates may run through a third protein. These calls come from enrichment with a bait or labelling near it, and not all partners need be listed. For part of these data: A no says only that the protein was not detected with the bait.
Legend:
Spp1-TAP (S. cerevisiae) = target: T1, Spp1-TAP (S. cerevisiae) (UniProt Q03012); experiment: affinity purification with mass spectrometry; Spp1-TAP purified from SET1 meiotic cells (VBD1266, t = 3.5 hr), TAP lysis buffer with 300 mM NaCl, 0.5% NP-40; untagged control ORD7339; label-free nanoLC-MS/MS, three biological replicates
T1 sequence: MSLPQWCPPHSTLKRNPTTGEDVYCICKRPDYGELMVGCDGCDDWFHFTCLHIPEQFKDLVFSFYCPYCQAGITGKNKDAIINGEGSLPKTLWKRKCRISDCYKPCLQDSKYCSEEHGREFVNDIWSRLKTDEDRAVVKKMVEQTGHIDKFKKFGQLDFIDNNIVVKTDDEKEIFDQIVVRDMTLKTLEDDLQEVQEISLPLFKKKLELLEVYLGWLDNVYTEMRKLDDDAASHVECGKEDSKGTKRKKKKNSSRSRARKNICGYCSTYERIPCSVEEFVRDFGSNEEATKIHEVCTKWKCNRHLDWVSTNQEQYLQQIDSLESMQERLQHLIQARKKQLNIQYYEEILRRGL

Mer2-TAP (S. cerevisiae) = target: T2, Mer2-TAP (S. cerevisiae) (UniProt P21651); experiment: affinity purification with mass spectrometry; Mer2-TAP purified from meiotic cells (VBD1402, t = 3.5 hr), TAP lysis buffer with 300 mM NaCl, 0.5% NP-40; untagged control ORD7339
T2 sequence: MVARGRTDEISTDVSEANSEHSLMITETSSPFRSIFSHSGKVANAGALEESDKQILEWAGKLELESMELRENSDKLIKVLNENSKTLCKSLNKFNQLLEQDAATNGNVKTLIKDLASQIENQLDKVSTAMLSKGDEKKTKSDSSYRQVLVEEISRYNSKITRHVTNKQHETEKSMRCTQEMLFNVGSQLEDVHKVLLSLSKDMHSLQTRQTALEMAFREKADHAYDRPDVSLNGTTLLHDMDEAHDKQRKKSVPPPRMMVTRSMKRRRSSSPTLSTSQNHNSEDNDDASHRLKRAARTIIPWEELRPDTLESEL

[1] = target: T3, Mer2-TAP (S. cerevisiae), P21651; experiment: as above; settings: remark: other sources report otherwise
T3 chain: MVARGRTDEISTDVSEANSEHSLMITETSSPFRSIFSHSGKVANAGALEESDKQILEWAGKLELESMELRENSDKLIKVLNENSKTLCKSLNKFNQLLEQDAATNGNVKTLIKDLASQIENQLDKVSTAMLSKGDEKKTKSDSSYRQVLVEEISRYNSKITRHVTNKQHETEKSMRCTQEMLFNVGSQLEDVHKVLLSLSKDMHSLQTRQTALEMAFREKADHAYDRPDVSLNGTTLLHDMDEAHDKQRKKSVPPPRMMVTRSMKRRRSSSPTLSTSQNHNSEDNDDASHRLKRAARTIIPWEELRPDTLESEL

B1: Set1 (endogenous) (enzyme, UniProt P38827 1-1080)
chain: MSNYYRRAHASSGSYRQPQEQPQYSRSGHYQYSNGHSHQQYSSQYNQRRRYNHNDGTRRRYNDDRPHSSNNASTRQYYATNNSQSGPYVNKKSDISSRRGMSQSRYSNSNVHNTLASSSGSLPTESALLLQQRPPSVLRYNTDNLKSKFHYFDPIKGEFFNKDKMLSWKATDKEFSETGYYVVKELQDGQFKFKIKHRHPEIKASDPRNENGIMTSGKVATHRKCRNSLILLPRISYDRYSLGPPPSCEIVVYPAQDSTTTNIQDISIKNYFKKYGEISHFEAFNDPNSALPLHVYLIKYASSDGKINDAAKAAFSAVRKHESSGCFIMGFKFEVILNKHSILNNIISKFVEINVKKLQKLQENLKKAKEKEAENEKAKELQGKDITLPKEPKVDTLSHSSGSEKRIPYDLLGVVNNRPVLHVSKIFVAKHRFCVEDFKYKLRGYRCAKFIDHPTGIYIIFNDIAHAQTCSNAESGNLTIMSRSRRIPILIKFHLILPRFQNRTRFNKSSSSSNSTNVPIKYESKEEFIEATAKQILKDLEKTLHVDIKKRLIGPTVFDALDHANFPELLAKRELKEKEKRQQIASKIAEDELKRKEEAKRDFDLFGLYGGYAKSNKRNLKRHNSLALDHTSLKRKKLSNGIKPMAHLLNEETDSKETTPLNDEGITRVSKEHDEEDENMTSSSSEEEEEEAPDKKFKSESEPTTPESDHLHGIKPLVPDQNGSSDVLDASSMYKPTATEIPEPVYPPEEYDLKYSQTLSSMDLQNAIKDEEDMLILKQLLSTYTPTVTPETSAALEYKIWQSRRKVLEEEKASDWQIELNGTLFDSELQPGSSFKAEGFRKIADKLKINYLPHRRRVHQPLNTVNIHNERNEYTPELCQREESSNKEPSDSVPQEVSSSRDNRASNRRFQQDIEAQKAAIGTESELLSLNQLNKRKKPVMFARSAIHNWGLYALDSIAAKEMIIEYVGERIRQPVAEMREKRYLKNGIGSSYLFRVDENTVIDATKKGGIARFINHCCDPNCTAKIIKVGGRRRIVIYALRDIAASEELTYDYKFEREKDDEERLPCLCGAPNCKGFLN
binding (Spp1-TAP (S. cerevisiae)): binds

B2: Spp1 (endogenous) (protein, UniProt Q03012 1-353)
chain: MSLPQWCPPHSTLKRNPTTGEDVYCICKRPDYGELMVGCDGCDDWFHFTCLHIPEQFKDLVFSFYCPYCQAGITGKNKDAIINGEGSLPKTLWKRKCRISDCYKPCLQDSKYCSEEHGREFVNDIWSRLKTDEDRAVVKKMVEQTGHIDKFKKFGQLDFIDNNIVVKTDDEKEIFDQIVVRDMTLKTLEDDLQEVQEISLPLFKKKLELLEVYLGWLDNVYTEMRKLDDDAASHVECGKEDSKGTKRKKKKNSSRSRARKNICGYCSTYERIPCSVEEFVRDFGSNEEATKIHEVCTKWKCNRHLDWVSTNQEQYLQQIDSLESMQERLQHLIQARKKQLNIQYYEEILRRGL
binding (Mer2-TAP (S. cerevisiae)): binds

B3: Mer2 (endogenous) (protein, UniProt P21651 1-314)
chain: MVARGRTDEISTDVSEANSEHSLMITETSSPFRSIFSHSGKVANAGALEESDKQILEWAGKLELESMELRENSDKLIKVLNENSKTLCKSLNKFNQLLEQDAATNGNVKTLIKDLASQIENQLDKVSTAMLSKGDEKKTKSDSSYRQVLVEEISRYNSKITRHVTNKQHETEKSMRCTQEMLFNVGSQLEDVHKVLLSLSKDMHSLQTRQTALEMAFREKADHAYDRPDVSLNGTTLLHDMDEAHDKQRKKSVPPPRMMVTRSMKRRRSSSPTLSTSQNHNSEDNDDASHRLKRAARTIIPWEELRPDTLESEL
binding (Spp1-TAP (S. cerevisiae)): binds

B4: Swd1 (endogenous) (protein, UniProt P39706 1-426)
chain: MNILLQDPFAVLKEHPEKLTHTIENPLRTECLQFSPCGDYLALGCANGALVIYDMDTFRPICVPGNMLGAHVRPITSIAWSPDGRLLLTSSRDWSIKLWDLSKPSKPLKEIRFDSPIWGCQWLDAKRRLCVATIFEESDAYVIDFSNDPVASLLSKSDEKQLSSTPDHGYVLVCTVHTKHPNIIIVGTSKGWLDFYKFHSLYQTECIHSLKITSSNIKHLIVSQNGERLAINCSDRTIRQYEISIDDENSAVELTLEHKYQDVINKLQWNCILFSNNTAEYLVASTHGSSAHELYIWETTSGTLVRVLEGAEEELIDINWDFYSMSIVSNGFESGNVYVWSVVIPPKWSALAPDFEEVEENVDYLEKEDEFDEVDEAEQQQGLEQEEEIAIDLRTREQYDVRGNNLLVERFTIPTDYTRIIKMQSS
binding (Mer2-TAP (S. cerevisiae)): no binding

B5: Mei4 (endogenous), P29467 1-408 (protein)
chain: MSRGKLEDMEQKETSEVDWIICFALIQSRNPTLWKRALSRKKGDVEDVGALKSEKNLKINPRENSKHIYKWVAPFENGFLNNKSLFAHLEPIYNFLCQNKYKSFEDAVGLKELQSFSKDVSTADINNWFLPRYKILLKILSLKTKEIDFRGLSQVFQTLQILLVSHYSHRIDSDSSFKRTLIDVHVFNFIAKFLFNRILLKKNQNDPKWLQNFYDQGDGKHLCDKVDYKRLCSLHFTLIYSIINIQLIKIKTNQTFEPQILKYVSVLKLIEHILIIIESLIHVLIRFVSKHKLICINRKKAYCRVYLERELSLKKTYLKNFYSVISGVPEKELGGLLKILKIVILSLLETFESIEWQHLKPFLEKFPAHEISLQKKRKYIQAALLITAERNLIARFRLSRWFNETENI
binding [1]: no binding

B6: Rec114 (endogenous), P32841 1-428 (protein)
chain: MYEYCSVVIKKYSKYTIPSFAPNGFQSMLEPPQIDKWQHLSANCTLQFRVLLMDSRQILINVVLNNSTLLENIRLPLGDNQDLIQFSCKSPIISCKYISEEFGPRMLRRFQMNLPNDVEFNRTVVSLKNLNFVLRTARTSIAQSTITSQVQGNNNGTKVCFTEGPKVSSYTNPNTQFQTQNMIMDFSQRYQEESERESNNRSNITLPHDSIQIAQQIWPNTDLNVVQSSQDLNTPMATQTVLGRPESLIVQPLEVSQSPPNTTNCLPNAENKKKKVDTTSDFTSRKEIALCKTGLLETIHIPKERESQMQSVTGLDATPTIIWSPGKDNTAKKNTSNKKNIDDKLTNPQKSGNTHTPDRNKEVLPNGTLNETRKEASPSEGLTIRVKNVNRNASRKISKRLIKEKLKDEEFMKWVNKVETVLNKMFEK
binding [1]: no binding
